Article PMC4466420
These are yes or no findings as the source states them, for the method shown. Some binding calls cover weakened binding; strength is not graded here.

The chains behind the UniProt entries cited, without tags or fusion partners.
UniProt A0A0D1DWZ5: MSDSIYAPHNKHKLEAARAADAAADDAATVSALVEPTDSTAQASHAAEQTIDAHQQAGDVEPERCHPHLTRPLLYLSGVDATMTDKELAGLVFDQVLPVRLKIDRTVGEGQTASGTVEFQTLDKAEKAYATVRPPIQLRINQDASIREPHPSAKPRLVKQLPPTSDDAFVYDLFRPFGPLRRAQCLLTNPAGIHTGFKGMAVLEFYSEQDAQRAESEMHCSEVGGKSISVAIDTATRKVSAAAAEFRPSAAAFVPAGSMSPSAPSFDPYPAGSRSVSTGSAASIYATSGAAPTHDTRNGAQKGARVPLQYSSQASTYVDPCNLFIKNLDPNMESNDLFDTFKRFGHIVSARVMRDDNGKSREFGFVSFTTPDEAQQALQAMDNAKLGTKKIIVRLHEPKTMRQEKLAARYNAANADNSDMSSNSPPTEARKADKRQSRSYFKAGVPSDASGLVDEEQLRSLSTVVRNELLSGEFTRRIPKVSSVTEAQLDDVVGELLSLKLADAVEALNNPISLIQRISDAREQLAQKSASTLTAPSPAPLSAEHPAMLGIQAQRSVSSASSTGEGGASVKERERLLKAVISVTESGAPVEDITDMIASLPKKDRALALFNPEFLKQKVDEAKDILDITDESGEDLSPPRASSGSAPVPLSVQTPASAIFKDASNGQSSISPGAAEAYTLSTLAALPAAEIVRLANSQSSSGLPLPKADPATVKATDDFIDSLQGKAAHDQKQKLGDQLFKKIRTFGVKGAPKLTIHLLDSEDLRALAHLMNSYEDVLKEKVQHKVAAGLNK

Tests used:
[1] = biological target: Upa1-Gfp (Ustilago maydis); assay: two-hybrid; Matchmaker 3 (Clontech), S. cerevisiae AH109; Upa1-Gfp versions fused to the Gal4 DNA-binding domain, Rrm4 versions to the activation domain; growth on SD plates without leucine, tryptophan, histidine and adenine, 28°C, 3 days
[2] = biological target: Upa1^ΔN1-Gfp (Ustilago maydis); assay: as above

Question: Rrm4 (from UniProt A0A0D1DWZ5 1-792) was tested. Which binding [1] did it give?
Answer: binds

Question: And the binding [2]?
Answer: binds
